For at least one entry, the source does not settle the construct or the ends of the probe. For some assays here: Tags and fusion partners may be left off the protein sequences shown.
Key:
Assay in all cases: protein microarray
Settings in all cases: 10-fold cold unmethylated competitor; 5mC at CpG (SssI, both strands); recombinant protein; protein details: GST (N-terminal); label: Cy5
ZNF114 (Homo sapiens) = ZNF114 (Homo sapiens) (UniProt Q8NC26)
ZNF416 (Homo sapiens) = ZNF416 (Homo sapiens) (UniProt Q9BWM5)
ZNF695 (Homo sapiens) = ZNF695 (Homo sapiens) (UniProt Q8IW36)
E2F3 (Homo sapiens) = E2F3 (Homo sapiens) (UniProt O00716)
GATA4 (Homo sapiens) = GATA4 (Homo sapiens) (UniProt P43694)
HOXA5 (Homo sapiens) = HOXA5 (Homo sapiens) (UniProt P20719)
SCAPER (Homo sapiens) = biological target: T1, SCAPER (Homo sapiens) (UniProt Q9BY12)
T1 sequence (looked up, limits assumed): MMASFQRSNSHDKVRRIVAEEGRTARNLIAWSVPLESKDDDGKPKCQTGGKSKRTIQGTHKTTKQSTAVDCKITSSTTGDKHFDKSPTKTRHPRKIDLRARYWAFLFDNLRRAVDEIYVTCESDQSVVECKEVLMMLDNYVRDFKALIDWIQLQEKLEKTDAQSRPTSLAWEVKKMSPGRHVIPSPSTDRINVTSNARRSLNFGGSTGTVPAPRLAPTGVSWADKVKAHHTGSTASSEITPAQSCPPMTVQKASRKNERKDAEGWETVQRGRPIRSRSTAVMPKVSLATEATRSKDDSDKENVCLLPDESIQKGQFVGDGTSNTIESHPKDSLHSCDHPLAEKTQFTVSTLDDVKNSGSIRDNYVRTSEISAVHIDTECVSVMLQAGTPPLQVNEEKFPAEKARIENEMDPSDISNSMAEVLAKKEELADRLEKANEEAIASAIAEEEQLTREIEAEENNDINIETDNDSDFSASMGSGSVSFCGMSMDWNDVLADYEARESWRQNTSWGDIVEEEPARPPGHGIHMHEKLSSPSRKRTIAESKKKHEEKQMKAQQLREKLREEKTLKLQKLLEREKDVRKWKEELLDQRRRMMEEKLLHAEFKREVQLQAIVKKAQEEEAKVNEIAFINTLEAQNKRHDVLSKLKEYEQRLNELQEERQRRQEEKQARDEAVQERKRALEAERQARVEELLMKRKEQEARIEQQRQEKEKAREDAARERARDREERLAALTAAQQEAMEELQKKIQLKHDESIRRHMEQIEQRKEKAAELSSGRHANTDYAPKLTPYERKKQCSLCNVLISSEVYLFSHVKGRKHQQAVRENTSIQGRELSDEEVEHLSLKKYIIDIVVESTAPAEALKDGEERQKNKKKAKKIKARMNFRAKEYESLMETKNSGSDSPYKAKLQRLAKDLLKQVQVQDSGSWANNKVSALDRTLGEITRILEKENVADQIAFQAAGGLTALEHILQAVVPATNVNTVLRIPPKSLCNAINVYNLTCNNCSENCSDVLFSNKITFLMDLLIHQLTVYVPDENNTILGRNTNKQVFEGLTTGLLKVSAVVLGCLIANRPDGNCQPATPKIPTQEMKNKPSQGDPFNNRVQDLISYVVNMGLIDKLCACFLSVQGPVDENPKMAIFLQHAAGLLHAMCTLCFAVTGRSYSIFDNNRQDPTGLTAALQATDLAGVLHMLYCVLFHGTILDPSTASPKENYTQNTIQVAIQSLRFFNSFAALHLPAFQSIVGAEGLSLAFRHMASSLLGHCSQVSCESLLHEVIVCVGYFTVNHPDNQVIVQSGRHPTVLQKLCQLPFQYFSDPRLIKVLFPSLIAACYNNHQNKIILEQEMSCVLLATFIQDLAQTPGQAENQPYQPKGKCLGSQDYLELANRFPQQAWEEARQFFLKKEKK

Amino acid sequences for entries named in this document (tags omitted). A change or cut given only in a name is not applied to a line headed by its entry.
UniProt Q8NC26: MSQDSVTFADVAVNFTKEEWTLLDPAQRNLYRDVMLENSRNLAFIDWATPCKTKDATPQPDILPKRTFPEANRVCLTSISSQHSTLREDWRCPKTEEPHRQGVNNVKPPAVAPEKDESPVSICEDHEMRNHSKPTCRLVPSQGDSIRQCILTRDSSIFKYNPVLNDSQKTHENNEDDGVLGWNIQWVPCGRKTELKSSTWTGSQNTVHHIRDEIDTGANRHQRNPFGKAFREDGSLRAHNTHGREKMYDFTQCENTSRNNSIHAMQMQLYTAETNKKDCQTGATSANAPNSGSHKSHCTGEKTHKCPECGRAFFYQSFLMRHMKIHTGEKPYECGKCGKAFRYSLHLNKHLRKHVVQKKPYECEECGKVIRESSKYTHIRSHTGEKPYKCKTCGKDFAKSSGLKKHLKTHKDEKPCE
UniProt Q9BWM5: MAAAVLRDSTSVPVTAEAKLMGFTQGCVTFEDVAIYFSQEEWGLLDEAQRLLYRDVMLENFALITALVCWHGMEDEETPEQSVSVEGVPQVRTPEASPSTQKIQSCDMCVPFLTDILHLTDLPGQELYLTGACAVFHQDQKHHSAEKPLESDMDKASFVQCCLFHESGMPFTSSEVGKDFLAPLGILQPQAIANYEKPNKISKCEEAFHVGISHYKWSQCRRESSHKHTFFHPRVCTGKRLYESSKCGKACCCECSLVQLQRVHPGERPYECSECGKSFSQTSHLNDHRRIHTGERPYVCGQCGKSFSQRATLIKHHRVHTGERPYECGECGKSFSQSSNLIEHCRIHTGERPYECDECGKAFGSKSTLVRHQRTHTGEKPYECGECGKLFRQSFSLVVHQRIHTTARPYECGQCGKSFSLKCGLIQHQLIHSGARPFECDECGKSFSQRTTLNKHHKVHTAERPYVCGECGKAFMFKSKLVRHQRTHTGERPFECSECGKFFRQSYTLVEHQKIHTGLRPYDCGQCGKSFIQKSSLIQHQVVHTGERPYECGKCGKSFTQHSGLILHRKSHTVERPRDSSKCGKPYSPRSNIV
UniProt Q8IW36: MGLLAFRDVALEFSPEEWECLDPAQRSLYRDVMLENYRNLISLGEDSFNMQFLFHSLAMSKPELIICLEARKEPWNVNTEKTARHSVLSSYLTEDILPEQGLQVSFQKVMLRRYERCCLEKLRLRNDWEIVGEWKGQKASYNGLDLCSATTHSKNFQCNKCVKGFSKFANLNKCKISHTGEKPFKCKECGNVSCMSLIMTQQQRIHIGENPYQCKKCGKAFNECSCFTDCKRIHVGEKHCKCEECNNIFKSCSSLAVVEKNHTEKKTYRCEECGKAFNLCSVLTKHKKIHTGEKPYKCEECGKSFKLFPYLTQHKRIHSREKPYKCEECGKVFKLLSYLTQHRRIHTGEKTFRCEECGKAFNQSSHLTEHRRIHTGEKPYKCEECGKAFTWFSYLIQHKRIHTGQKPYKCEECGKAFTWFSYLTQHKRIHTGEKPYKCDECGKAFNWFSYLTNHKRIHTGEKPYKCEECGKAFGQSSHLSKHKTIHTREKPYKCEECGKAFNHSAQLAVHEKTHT
UniProt O00716: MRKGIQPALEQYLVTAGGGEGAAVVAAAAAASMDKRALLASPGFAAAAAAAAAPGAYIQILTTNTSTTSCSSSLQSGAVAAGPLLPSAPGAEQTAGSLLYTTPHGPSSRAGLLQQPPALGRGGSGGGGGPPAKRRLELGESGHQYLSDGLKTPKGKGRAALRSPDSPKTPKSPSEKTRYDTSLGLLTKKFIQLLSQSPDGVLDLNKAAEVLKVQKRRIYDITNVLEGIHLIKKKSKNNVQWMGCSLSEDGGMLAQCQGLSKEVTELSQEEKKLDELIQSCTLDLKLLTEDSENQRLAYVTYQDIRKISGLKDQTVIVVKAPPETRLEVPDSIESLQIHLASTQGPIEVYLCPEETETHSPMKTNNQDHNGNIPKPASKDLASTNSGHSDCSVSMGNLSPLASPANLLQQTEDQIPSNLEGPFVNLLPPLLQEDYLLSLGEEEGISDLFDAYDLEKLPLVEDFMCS
UniProt P43694: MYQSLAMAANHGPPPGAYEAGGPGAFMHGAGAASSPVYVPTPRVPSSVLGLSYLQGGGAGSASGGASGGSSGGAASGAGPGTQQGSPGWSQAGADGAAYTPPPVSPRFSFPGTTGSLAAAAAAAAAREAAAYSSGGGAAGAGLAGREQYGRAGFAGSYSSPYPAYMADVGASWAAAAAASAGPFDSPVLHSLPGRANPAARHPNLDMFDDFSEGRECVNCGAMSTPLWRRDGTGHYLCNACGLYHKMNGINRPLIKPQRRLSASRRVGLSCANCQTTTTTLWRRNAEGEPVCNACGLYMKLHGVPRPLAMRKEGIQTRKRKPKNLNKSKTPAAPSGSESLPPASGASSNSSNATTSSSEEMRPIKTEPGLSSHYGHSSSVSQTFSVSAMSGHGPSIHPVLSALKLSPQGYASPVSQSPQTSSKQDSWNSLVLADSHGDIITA
UniProt P20719: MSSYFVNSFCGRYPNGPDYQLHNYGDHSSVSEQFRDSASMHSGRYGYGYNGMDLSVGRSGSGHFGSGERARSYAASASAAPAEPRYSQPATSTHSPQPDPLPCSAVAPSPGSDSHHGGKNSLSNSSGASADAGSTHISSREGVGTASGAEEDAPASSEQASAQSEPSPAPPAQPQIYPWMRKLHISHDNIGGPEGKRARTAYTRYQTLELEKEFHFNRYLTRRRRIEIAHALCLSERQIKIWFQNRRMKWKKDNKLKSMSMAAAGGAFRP
UniProt P37231: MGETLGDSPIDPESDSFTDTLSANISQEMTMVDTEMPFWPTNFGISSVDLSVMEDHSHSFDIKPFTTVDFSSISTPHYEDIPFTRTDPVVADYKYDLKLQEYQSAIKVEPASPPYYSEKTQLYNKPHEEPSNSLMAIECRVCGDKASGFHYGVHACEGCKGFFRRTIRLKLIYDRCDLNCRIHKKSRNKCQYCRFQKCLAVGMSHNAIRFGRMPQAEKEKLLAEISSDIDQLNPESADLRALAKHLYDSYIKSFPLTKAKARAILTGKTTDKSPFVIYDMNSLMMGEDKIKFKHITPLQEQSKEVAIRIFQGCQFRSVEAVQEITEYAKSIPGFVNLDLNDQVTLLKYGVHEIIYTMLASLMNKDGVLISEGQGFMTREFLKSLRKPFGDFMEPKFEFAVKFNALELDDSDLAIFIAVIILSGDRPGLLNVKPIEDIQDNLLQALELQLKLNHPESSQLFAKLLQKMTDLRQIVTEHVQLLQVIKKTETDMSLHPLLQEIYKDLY

PPARG (Homo sapiens) = PPARG (Homo sapiens) (UniProt P37231)

Measured: binding result

GACCACGTGGTCAAAGACCACGTGGTCCCCTATAGTGAGTGCTATTA (double strand) [M21]
binds: ZNF114 (Homo sapiens) | ZNF416 (Homo sapiens) | ZNF695 (Homo sapiens)

AATCCGACTCCCAATCCGACTCCCTATAGTGAGTGCTATTA (double strand) [M289]
binds: ZNF114 (Homo sapiens) | ZNF416 (Homo sapiens) | ZNF695 (Homo sapiens)

TTTCCCGCCAAATTTCCCGCCCCCTATAGTGAGTGCTATTA (double strand) [M236]
binds: E2F3 (Homo sapiens) | GATA4 (Homo sapiens) | ZNF114 (Homo sapiens) | ZNF416 (Homo sapiens) | ZNF695 (Homo sapiens)

CCCGGAAAGAAACCCGGAAAGCCCTATAGTGAGTGCTATTA (double strand) [M251]
binds: E2F3 (Homo sapiens) | ZNF114 (Homo sapiens) | ZNF416 (Homo sapiens) | ZNF695 (Homo sapiens)

ATTGGACGTTTATTGGACGCCCTATAGTGAGTGCTATTA (double strand) [M418]
binds: GATA4 (Homo sapiens) | HOXA5 (Homo sapiens) | SCAPER (Homo sapiens) | ZNF114 (Homo sapiens) | ZNF416 (Homo sapiens)

CTGCGGCAAACTGCGGCCCCTATAGTGAGTGCTATTA (double strand) [M295]
binds: E2F3 (Homo sapiens) | ZNF114 (Homo sapiens) | ZNF416 (Homo sapiens) | ZNF695 (Homo sapiens)

CACATCTGGACAGATGTGGGCGAAACACATCTGGACAGATGTGGGCGCCCTATAGTGAGTGCTATTA (double strand) [M47]
binds: E2F3 (Homo sapiens) | HOXA5 (Homo sapiens) | PPARG (Homo sapiens) | SCAPER (Homo sapiens) | ZNF114 (Homo sapiens) | ZNF416 (Homo sapiens)

TCAGCACCACGGACAGAAATCAGCACCACGGACAGCCCTATAGTGAGTGCTATTA (double strand) [M137]
binds: E2F3 (Homo sapiens) | GATA4 (Homo sapiens) | HOXA5 (Homo sapiens) | SCAPER (Homo sapiens) | ZNF114 (Homo sapiens) | ZNF416 (Homo sapiens) | ZNF695 (Homo sapiens)

AGATATCGGGGAGATATCGCCCTATAGTGAGTGCTATTA (double strand) [M427]
binds: HOXA5 (Homo sapiens) | PPARG (Homo sapiens) | SCAPER (Homo sapiens) | ZNF114 (Homo sapiens) | ZNF416 (Homo sapiens)

CCGGAAGTCCCCCGGAAGTCCCTATAGTGAGTGCTATTA (double strand) [M60]
binds: E2F3 (Homo sapiens) | GATA4 (Homo sapiens) | HOXA5 (Homo sapiens) | ZNF114 (Homo sapiens) | ZNF416 (Homo sapiens) | ZNF695 (Homo sapiens)

AGGAGCTCGAGTCCAAAAGGAGCTCGAGTCCCCCTATAGTGAGTGCTATTA (double strand) [M239]
binds: GATA4 (Homo sapiens) | ZNF114 (Homo sapiens) | ZNF416 (Homo sapiens) | ZNF695 (Homo sapiens)

GGCCGTTCTTTTGGCCGTTCTCCCTATAGTGAGTGCTATTA (double strand) [M390]
binds: SCAPER (Homo sapiens) | ZNF114 (Homo sapiens) | ZNF416 (Homo sapiens) | ZNF695 (Homo sapiens)

CTTTCGATTTCCCCTTTCGATTTCCCTATAGTGAGTGCTATTA (double strand) [M248]
binds: E2F3 (Homo sapiens) | ZNF114 (Homo sapiens) | ZNF416 (Homo sapiens) | ZNF695 (Homo sapiens)

GCGCCAATGAAAGCGCCAATGCCCTATAGTGAGTGCTATTA (double strand) [M259]
binds: ZNF114 (Homo sapiens) | ZNF416 (Homo sapiens) | ZNF695 (Homo sapiens)

GAGGCGCAAAGAGGCGCCCCTATAGTGAGTGCTATTA (double strand) [M290]
binds: ZNF114 (Homo sapiens) | ZNF416 (Homo sapiens) | ZNF695 (Homo sapiens)

ACGTGATCTCCCACGTGATCTCCCTATAGTGAGTGCTATTA (double strand) [M253]
binds: E2F3 (Homo sapiens) | ZNF114 (Homo sapiens) | ZNF416 (Homo sapiens) | ZNF695 (Homo sapiens)

ACTTCCGTTCCCACTTCCGTTCCCTATAGTGAGTGCTATTA (double strand) [M260]
binds: ZNF114 (Homo sapiens) | ZNF416 (Homo sapiens) | ZNF695 (Homo sapiens)

CCGGGCCAAACCGGGCCCCCTATAGTGAGTGCTATTA (double strand) [M77]
binds: E2F3 (Homo sapiens) | GATA4 (Homo sapiens) | HOXA5 (Homo sapiens) | SCAPER (Homo sapiens) | ZNF114 (Homo sapiens) | ZNF416 (Homo sapiens)

GCGTCTTACAAAGCGTCTTACCCCTATAGTGAGTGCTATTA (double strand) [M256]
binds: ZNF114 (Homo sapiens) | ZNF416 (Homo sapiens) | ZNF695 (Homo sapiens)

ATCGTGTCAAAATCGTGTCCCCTATAGTGAGTGCTATTA (double strand) [M421]
binds: GATA4 (Homo sapiens) | HOXA5 (Homo sapiens) | SCAPER (Homo sapiens) | ZNF114 (Homo sapiens) | ZNF416 (Homo sapiens)

GTTGCCGGGCAACAAAGTTGCCGGGCAACCCCTATAGTGAGTGCTATTA (double strand) [M226]
binds: ZNF114 (Homo sapiens) | ZNF416 (Homo sapiens) | ZNF695 (Homo sapiens)

CCGCTGCAAACCGCTGCCCCTATAGTGAGTGCTATTA (double strand) [M297]
binds: E2F3 (Homo sapiens) | PPARG (Homo sapiens) | ZNF114 (Homo sapiens) | ZNF416 (Homo sapiens) | ZNF695 (Homo sapiens)

ACTTCGCTTTTACTTCGCTCCCTATAGTGAGTGCTATTA (double strand) [M423]
binds: HOXA5 (Homo sapiens) | SCAPER (Homo sapiens) | ZNF114 (Homo sapiens) | ZNF416 (Homo sapiens)

CCCGATAGAAACCCGATAGCCCTATAGTGAGTGCTATTA (double strand) [M430]
binds: HOXA5 (Homo sapiens) | PPARG (Homo sapiens) | SCAPER (Homo sapiens) | ZNF114 (Homo sapiens) | ZNF416 (Homo sapiens)

GGAAATCCCGCAAAGGAAATCCCGCCCCTATAGTGAGTGCTATTA (double strand) [M223]
binds: ZNF114 (Homo sapiens) | ZNF416 (Homo sapiens) | ZNF695 (Homo sapiens)

From article PMC3762332
